From the supplement of paper PMC12823440, “Inhibitors supercharge kinase turnover through native proteolytic circuits” (Nature, 2025)
Counter-ions that a name gives are not always drawn. Some of the results follow. The calls rarely recur for the same compound in another form.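 In K562 cells expressing nanoluciferase-fused kinases, luminescence was recorded at 4 h intervals between 2 and 18 h, normalized as percent of control with DMSO at 100% and a positive control at 0%. A significant (2 sigma) signal drop marks a time point as decreased. The authors' rule for a hit is not shown and takes in more than the number of time points.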

Sequences of proteins named here, by UniProt entry; tags and fusion partners are left off. A change or cut given only in a name is not applied to a line headed by its entry.
UniProt Q06187: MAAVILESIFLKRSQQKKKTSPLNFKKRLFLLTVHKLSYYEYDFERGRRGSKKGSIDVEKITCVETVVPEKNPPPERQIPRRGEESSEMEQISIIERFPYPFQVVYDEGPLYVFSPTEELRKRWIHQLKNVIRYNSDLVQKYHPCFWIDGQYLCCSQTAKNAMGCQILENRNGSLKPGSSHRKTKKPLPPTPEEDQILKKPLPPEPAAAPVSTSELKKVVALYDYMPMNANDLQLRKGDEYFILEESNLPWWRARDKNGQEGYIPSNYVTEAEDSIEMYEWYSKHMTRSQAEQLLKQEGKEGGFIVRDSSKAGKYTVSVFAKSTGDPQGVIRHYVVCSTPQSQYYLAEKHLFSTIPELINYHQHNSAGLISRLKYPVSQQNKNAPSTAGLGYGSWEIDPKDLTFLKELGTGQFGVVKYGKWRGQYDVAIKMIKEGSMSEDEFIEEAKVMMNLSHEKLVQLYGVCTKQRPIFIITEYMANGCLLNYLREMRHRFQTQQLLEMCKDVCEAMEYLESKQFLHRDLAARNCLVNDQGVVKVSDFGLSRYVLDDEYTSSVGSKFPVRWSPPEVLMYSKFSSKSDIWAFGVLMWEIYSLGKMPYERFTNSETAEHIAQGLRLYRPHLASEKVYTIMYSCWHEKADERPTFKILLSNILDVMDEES
UniProt Q9UQM7, whole entry: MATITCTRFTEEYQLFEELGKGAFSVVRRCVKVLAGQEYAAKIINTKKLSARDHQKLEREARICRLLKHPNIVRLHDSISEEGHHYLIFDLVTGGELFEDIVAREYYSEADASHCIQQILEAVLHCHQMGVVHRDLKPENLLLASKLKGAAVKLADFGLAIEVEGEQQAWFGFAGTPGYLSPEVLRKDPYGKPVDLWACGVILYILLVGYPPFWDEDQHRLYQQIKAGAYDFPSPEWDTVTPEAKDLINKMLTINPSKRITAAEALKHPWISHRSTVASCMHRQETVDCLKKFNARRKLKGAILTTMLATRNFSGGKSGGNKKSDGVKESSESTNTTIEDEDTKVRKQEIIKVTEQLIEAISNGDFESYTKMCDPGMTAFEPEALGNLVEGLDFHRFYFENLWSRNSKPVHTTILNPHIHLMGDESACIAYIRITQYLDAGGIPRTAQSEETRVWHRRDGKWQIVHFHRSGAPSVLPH
UniProt Q13555: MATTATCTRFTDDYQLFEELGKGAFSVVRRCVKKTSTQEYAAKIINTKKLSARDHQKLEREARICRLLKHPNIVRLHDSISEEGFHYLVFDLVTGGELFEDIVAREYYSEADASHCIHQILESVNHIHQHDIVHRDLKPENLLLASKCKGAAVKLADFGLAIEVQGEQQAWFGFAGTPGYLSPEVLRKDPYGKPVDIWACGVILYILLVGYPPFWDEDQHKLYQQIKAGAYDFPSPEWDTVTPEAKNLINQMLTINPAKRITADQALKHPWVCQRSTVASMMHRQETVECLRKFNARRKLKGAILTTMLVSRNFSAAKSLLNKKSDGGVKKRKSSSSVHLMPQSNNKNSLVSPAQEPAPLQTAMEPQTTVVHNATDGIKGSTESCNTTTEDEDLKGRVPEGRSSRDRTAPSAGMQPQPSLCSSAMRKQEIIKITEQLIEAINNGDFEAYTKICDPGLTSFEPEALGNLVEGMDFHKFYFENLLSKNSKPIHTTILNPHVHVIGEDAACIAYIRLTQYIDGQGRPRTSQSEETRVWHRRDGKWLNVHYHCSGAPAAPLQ
UniProt P11802: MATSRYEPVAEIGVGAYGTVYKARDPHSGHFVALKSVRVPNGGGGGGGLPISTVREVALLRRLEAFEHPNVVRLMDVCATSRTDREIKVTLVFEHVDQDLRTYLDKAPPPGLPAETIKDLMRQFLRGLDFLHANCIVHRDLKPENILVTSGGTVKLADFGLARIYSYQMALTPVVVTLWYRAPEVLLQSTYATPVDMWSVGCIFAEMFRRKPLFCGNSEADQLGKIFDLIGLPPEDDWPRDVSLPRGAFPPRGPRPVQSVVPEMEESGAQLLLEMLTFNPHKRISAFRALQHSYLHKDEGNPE
UniProt Q00534, whole entry: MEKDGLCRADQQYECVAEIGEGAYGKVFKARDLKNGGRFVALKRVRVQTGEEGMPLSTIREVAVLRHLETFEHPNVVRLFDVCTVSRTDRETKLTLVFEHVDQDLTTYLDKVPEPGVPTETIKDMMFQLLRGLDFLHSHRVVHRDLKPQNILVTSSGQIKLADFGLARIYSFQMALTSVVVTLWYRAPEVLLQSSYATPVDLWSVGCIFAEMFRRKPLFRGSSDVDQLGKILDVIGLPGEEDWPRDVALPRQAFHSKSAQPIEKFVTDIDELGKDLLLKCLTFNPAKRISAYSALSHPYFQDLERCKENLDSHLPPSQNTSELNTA
UniProt P50750, whole entry: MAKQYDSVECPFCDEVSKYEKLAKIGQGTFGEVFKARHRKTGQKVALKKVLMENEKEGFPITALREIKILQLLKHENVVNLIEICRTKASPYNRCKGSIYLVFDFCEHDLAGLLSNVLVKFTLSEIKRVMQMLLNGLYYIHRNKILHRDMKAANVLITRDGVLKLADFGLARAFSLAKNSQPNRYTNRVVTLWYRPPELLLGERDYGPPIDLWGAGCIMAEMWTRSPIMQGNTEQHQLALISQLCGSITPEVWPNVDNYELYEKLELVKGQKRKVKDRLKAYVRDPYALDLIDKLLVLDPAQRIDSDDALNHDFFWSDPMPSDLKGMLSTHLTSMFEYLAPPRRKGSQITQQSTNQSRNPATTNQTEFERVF
UniProt P07333, whole entry: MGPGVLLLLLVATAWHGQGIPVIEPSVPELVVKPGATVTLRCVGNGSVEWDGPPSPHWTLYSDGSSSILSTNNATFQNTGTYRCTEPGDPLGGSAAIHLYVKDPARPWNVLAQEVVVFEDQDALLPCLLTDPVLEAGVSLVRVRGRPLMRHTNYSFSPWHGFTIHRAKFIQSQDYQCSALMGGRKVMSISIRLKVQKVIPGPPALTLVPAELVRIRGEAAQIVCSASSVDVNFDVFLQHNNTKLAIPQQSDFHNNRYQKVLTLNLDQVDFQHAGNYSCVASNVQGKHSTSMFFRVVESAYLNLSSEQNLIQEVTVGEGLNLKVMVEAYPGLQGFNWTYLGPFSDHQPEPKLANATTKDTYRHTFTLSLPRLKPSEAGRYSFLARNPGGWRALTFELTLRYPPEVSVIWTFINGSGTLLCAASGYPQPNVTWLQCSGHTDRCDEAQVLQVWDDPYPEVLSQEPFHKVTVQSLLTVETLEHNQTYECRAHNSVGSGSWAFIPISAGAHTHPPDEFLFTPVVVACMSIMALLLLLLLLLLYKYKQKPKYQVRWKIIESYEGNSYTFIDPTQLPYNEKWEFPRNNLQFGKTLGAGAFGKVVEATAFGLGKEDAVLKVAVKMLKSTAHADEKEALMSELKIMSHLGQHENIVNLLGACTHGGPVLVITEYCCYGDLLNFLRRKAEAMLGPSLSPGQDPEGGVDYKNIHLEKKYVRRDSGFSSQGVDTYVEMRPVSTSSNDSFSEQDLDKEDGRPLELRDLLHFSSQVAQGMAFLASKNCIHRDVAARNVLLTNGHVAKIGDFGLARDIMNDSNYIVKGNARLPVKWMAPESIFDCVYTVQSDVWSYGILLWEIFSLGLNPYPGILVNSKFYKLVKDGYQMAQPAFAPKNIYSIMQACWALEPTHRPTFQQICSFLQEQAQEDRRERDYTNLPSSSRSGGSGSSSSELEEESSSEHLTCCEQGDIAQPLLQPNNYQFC
UniProt P41240: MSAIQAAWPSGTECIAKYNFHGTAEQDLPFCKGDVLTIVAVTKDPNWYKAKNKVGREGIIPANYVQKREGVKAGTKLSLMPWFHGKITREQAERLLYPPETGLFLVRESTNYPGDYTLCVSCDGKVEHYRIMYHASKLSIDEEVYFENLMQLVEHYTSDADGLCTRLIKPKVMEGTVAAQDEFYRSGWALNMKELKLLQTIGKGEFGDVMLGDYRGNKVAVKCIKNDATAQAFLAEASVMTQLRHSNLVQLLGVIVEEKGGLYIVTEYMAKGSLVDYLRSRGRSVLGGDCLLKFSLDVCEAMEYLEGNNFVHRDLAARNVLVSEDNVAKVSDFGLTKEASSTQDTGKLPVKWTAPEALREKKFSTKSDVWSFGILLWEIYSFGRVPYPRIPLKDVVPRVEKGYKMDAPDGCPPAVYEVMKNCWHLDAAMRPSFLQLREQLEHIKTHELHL
UniProt P48729: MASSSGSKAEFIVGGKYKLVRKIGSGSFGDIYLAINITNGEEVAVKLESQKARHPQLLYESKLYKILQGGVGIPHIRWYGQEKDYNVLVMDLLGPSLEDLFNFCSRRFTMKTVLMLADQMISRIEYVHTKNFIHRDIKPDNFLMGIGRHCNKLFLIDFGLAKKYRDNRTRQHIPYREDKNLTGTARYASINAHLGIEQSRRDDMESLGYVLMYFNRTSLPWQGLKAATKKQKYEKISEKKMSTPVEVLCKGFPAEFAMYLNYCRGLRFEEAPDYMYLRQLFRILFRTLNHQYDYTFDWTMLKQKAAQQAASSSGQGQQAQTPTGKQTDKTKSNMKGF
UniProt P48730: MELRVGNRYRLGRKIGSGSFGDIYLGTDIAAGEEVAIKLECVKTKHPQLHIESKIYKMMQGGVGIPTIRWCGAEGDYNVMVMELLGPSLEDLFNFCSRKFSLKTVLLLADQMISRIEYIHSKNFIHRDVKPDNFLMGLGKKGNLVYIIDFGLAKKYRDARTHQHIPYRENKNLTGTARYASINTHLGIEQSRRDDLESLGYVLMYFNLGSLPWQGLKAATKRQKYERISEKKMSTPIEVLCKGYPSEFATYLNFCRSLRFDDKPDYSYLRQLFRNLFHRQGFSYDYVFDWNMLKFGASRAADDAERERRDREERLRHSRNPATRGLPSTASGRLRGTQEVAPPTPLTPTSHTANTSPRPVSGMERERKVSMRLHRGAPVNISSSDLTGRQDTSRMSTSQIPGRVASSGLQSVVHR
UniProt Q08345: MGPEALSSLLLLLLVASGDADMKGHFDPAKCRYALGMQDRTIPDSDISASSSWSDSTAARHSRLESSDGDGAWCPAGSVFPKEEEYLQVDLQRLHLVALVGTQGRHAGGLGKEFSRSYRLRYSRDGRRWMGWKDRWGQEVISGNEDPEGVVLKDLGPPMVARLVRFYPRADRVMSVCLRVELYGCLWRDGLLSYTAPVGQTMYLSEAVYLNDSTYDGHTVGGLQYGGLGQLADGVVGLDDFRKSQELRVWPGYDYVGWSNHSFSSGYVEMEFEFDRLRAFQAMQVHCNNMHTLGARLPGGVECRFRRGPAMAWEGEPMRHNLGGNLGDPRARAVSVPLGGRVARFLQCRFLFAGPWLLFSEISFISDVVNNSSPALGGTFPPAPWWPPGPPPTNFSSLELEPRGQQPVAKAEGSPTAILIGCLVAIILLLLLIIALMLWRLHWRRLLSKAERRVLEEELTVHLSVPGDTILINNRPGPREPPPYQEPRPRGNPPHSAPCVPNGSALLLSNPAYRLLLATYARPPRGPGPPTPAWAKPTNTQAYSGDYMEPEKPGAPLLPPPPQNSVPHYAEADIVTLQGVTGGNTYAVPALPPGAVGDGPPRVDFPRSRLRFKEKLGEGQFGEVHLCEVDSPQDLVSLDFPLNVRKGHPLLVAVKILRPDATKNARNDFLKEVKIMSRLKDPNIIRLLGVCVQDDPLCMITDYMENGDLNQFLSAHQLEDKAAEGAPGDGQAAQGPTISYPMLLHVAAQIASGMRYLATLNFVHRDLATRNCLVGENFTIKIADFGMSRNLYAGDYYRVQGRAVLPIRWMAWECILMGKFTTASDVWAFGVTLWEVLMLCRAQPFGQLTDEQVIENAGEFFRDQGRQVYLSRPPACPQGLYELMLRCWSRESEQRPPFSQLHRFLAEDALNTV
UniProt Q9Y463, whole entry, looked up: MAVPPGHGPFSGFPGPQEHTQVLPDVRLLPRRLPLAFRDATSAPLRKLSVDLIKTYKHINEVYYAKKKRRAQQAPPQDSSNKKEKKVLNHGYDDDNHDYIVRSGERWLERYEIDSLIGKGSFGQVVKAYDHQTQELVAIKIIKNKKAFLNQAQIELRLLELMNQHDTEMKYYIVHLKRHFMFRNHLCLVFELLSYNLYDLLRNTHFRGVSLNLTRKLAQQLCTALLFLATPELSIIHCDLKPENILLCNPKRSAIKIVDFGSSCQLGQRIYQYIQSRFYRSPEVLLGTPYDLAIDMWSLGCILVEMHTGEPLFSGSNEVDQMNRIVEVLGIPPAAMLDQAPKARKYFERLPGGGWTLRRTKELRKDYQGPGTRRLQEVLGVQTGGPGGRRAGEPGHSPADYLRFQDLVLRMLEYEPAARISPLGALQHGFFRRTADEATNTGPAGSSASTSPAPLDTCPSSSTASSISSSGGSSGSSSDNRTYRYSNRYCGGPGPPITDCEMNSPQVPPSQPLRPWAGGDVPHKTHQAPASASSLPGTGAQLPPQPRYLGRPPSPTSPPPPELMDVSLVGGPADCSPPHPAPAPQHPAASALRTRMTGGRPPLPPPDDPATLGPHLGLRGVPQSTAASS

Columns and labels:
Assay in all cases: kinase-Nluc reporter destabilization hit call (1 = scored as downregulated) (binary); higher = compound decreases kinase abundance
Conditions in all cases: K562; 2-18 h
BRAF_V600E = tested on: BRAF_V600E
BTK = BTK (UniProt Q06187)
CAMK2A = CAMK2A (UniProt Q9UQM7)
CAMK2G = CAMK2G (UniProt Q13555)
CDK10 = CDK10 (UniProt Q15131)
CDK2 = CDK2 (UniProt P24941)
CDK3 = CDK3 (UniProt Q00526)
CDK4 = CDK4 (UniProt P11802)
CDK5 = CDK5 (UniProt Q00535)
CDK6 = CDK6 (UniProt Q00534)
CDK7 = CDK7 (UniProt P50613)
CDK9 = CDK9 (UniProt P50750)
CHEK2 = CHEK2 (UniProt O96017)
CSF1R = CSF1R (UniProt P07333)
CSK = CSK (UniProt P41240)
CSNK1A1 = CSNK1A1 (UniProt P48729)
CSNK1D = CSNK1D (UniProt P48730)
DDR1 = DDR1 (UniProt Q08345)
DYRK1B = DYRK1B (UniProt Q9Y463)
DYRK2 = DYRK2 (UniProt Q92630)

Measured: kinase-Nluc reporter destabilization hit call

O=C(O)c1sc2cc(Cl)ccc2c1Cl (10 µM)
inactive: BRAF_V600E 0 | BTK 0 | CAMK2A 0 | CAMK2G 0 | CDK10 = 0 | CDK2 = 0 | CDK3 = 0 | CDK4 = 0 | CDK5 = 0 | CDK6 = 0 | CDK7 = 0 | CDK9 = 0 | CHEK2 = 0 | CSF1R 0 | CSK 0 | CSNK1A1 = 0 | CSNK1D 0 | DDR1 = 0 | DYRK1B 0 | DYRK2 = 0

N#CC(C#N)=Cc1ccc([N+](=O)[O-])c(O)c1 (10 µM)
inactive: BRAF_V600E 0 | BTK 0 | CAMK2A 0 | CAMK2G 0 | CDK10 = 0 | CDK2 = 0 | CDK3 = 0 | CDK4 = 0 | CDK5 = 0 | CDK6 = 0 | CDK7 = 0 | CDK9 = 0 | CHEK2 = 0 | CSF1R 0 | CSK 0 | CSNK1A1 = 0 | CSNK1D 0 | DDR1 = 0 | DYRK1B 0 | DYRK2 = 0

Cc1[nH]ncc1-c1cc2nc([C@H]3CC4CCN3CC4)[nH]c(=O)c2s1 [(R)-Simurosertib] (10 µM)
inactive: BRAF_V600E 0 | BTK 0 | CAMK2A 0 | CAMK2G 0 | CDK10 = 0 | CDK2 = 0 | CDK3 = 0 | CDK4 = 0 | CDK5 = 0 | CDK6 = 0 | CDK7 = 0 | CDK9 = 0 | CHEK2 = 0 | CSF1R 0 | CSK 0 | CSNK1A1 = 0 | CSNK1D 0 | DDR1 = 0 | DYRK1B 0 | DYRK2 = 0

C/C(O)=C(\C#N)C(=O)Nc1cc(Br)ccc1Br (10 µM)
inactive: BRAF_V600E 0 | BTK 0 | CAMK2A 0 | CAMK2G 0 | CDK10 = 0 | CDK2 = 0 | CDK3 = 0 | CDK4 = 0 | CDK5 = 0 | CDK6 = 0 | CDK7 = 0 | CDK9 = 0 | CHEK2 = 0 | CSF1R 0 | CSK 0 | CSNK1A1 = 0 | CSNK1D 0 | DDR1 = 0 | DYRK1B 0 | DYRK2 = 0

O=C1c2ccccc2C(=O)c2c1cccc2-c1cnn(C2CCNCC2)c1 [PDK4-IN-1 (hydrochloride)] (10 µM)
inactive: BRAF_V600E 0 | BTK 0 | CAMK2A 0 | CAMK2G 0 | CDK10 = 0 | CDK2 = 0 | CDK3 = 0 | CDK4 = 0 | CDK5 = 0 | CDK6 = 0 | CDK7 = 0 | CDK9 = 0 | CHEK2 = 0 | CSF1R 0 | CSK 0 | CSNK1A1 = 0 | CSNK1D 0 | DDR1 = 0 | DYRK1B 0 | DYRK2 = 0

O=c1ccc2cc(O[C@@H]3O[C@H](CO)[C@@H](O)[C@H](O)[C@H]3O)c(O)cc2o1 [Esculin] (10 µM)
inactive: BRAF_V600E 0 | BTK 0 | CAMK2A 0 | CAMK2G 0 | CDK10 = 0 | CDK2 = 0 | CDK3 = 0 | CDK4 = 0 | CDK5 = 0 | CDK6 = 0 | CDK7 = 0 | CDK9 = 0 | CHEK2 = 0 | CSF1R 0 | CSK 0 | CSNK1A1 = 0 | CSNK1D 0 | DDR1 = 0 | DYRK1B 0 | DYRK2 = 0

COc1ccc2c(c[n+](C)c3c4cc5c(cc4ccc23)OCO5)c1OC [Chelerythrine (chloride)] (10 µM)
inactive: BRAF_V600E 0 | BTK 0 | CAMK2A 0 | CDK10 = 0 | CDK2 = 0 | CDK3 = 0 | CDK4 = 0 | CDK5 = 0 | CDK6 = 0 | CDK7 = 0 | CDK9 = 0 | CHEK2 = 0 | CSF1R 0 | CSK 0 | CSNK1A1 = 0 | CSNK1D 0 | DDR1 = 0 | DYRK1B 0 | DYRK2 = 0
active: CAMK2G 1
